Measured values: PMC6418084

Protein sequences, listed by entry. Tags and fused reporters are not part of them. Lines headed by an entry give the natural chain unless they say otherwise; changes in a name come on top.
UniProt P09084: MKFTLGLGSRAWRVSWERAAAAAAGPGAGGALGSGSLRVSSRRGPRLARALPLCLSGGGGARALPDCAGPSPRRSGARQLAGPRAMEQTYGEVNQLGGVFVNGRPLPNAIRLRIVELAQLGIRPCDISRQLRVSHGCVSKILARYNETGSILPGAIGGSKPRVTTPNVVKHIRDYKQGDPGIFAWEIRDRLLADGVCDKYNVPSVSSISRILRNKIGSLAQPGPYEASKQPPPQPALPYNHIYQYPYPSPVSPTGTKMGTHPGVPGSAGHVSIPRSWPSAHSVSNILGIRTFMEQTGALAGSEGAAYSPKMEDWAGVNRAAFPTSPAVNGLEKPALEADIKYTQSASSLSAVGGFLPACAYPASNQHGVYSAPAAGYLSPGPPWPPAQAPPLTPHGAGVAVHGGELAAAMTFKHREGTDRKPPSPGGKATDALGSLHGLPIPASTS
UniProt P47242: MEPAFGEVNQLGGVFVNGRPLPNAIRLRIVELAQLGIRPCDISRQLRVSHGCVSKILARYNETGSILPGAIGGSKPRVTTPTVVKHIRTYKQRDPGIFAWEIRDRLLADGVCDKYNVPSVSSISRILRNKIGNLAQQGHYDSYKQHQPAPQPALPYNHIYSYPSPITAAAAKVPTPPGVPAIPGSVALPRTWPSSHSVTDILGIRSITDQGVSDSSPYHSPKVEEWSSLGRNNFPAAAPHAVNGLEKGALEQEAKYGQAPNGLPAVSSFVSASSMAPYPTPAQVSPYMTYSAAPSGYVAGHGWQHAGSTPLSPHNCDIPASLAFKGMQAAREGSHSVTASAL

Tests used:
Assay in all cases: EMSA
FLAG-PAX1 (mouse) = FLAG-PAX1 (mouse) (UniProt P09084); conditions: Active Motif Gelshift Chemiluminescent EMSA kit, HEK293T nuclear extracts, 5-100 fmol biotin probe, for SOX9 20 uL with 1 ug poly(dG-dC) and 20 ug BSA, protein in an extract, protein details: N-terminal FLAG, label: biotin 3' end
PAX1 (mouse) = PAX1 (mouse) (UniProt P09084); conditions: with SOX9 extract; Active Motif Gelshift Chemiluminescent EMSA kit, HEK293T nuclear extracts, 5-100 fmol biotin probe; for SOX9 20 uL with 1 ug poly(dG-dC) and 20 ug BSA; protein in an extract; label: biotin 3' end
SOX9 (mouse) = molecular target: T1, SOX9 (mouse) (UniProt Q04887); conditions: Active Motif Gelshift Chemiluminescent EMSA kit, HEK293T nuclear extracts, 5-100 fmol biotin probe, for SOX9 20 uL with 1 ug poly(dG-dC) and 20 ug BSA, protein in an extract, label: biotin 3' end
T1 sequence (looked up, limits assumed): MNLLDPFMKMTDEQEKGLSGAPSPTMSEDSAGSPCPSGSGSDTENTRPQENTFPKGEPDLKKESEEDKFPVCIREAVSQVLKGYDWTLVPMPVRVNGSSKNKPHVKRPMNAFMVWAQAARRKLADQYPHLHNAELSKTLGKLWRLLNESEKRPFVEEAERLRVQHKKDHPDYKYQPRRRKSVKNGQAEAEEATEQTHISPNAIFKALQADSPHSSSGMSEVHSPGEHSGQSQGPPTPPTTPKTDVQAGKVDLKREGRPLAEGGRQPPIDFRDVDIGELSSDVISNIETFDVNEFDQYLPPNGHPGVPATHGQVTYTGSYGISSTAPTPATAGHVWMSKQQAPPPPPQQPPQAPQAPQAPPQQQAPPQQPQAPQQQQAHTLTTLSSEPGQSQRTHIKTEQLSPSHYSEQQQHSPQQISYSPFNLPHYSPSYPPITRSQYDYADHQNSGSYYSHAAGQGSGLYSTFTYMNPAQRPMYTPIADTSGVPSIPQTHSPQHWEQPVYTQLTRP

FLAG-PAX9 (mouse) = FLAG-PAX9 (mouse) (UniProt P47242); conditions: Active Motif Gelshift Chemiluminescent EMSA kit, HEK293T nuclear extracts, 5-100 fmol biotin probe, for SOX9 20 uL with 1 ug poly(dG-dC) and 20 ug BSA, protein in an extract, protein details: N-terminal FLAG, label: biotin 3' end

## TTTCAAACCTGGCAAAAAAAATAGGTGCCTTGTGTTCAGGCTTATGACTCTGGAA (double strand) [UE m1]
FLAG-PAX1 (mouse)
  binding result: binds

## TTTCAAACCTGGCAGGGTGAAAAAAAGCCTTGTGTTCAGGCTTATGACTCTGGAA (double strand) [UE m2]
FLAG-PAX1 (mouse)
  binding result: binds

## TTTCAAACCTGGCAGGGTGAATAGGTGAAAAATGTTCAGGCTTATGACTCTGGAA (double strand) [UE m3 (SOX9 site mutated)]
PAX1 (mouse)
  binding result: binds
SOX9 (mouse); with PAX1 extract
  binding result: no binding
FLAG-PAX9 (mouse)
  binding result: binds
FLAG-PAX1 (mouse)
  binding result: binds

## TTTCAAACCTGGCAGGGTGAATAGGTGCAAAAAGTTCAGGCTTATGACTCTGGAA (double strand) [UE m4]
FLAG-PAX1 (mouse)
  binding result: binds

## TTTCAAACCTGGCAGGGTGAATAGGTGCCAAAAATTCAGGCTTATGACTCTGGAA (double strand) [UE m5]
FLAG-PAX1 (mouse)
  binding result: no binding

## TTTCAAACCTGGCAGGGTGAATAGGTGCCTTGTGTTCAAAAATATGACTCTGGAA (double strand) [UE m6]
FLAG-PAX1 (mouse)
  binding result: no binding

## TTTCAAACCTGGCAGGGTGAATAGGTGCCTTGTGTTCAGGCTTAAAAATCTGGAA (double strand) [UE m7 (PAX1/9 site mutated)]
PAX1 (mouse)
  binding result: no binding
SOX9 (mouse); with PAX1 extract
  binding result: binds
FLAG-PAX9 (mouse)
  binding result: no binding
FLAG-PAX1 (mouse)
  binding result: no binding

## TTTCAAACCTGGCAGGGTGAATAGGTGCCTTGTGTTCAGGCTTATGACTCAAATT (double strand) [UE m8]
FLAG-PAX1 (mouse)
  binding result: no binding

## TTTCAAACCTGGCAGGGTGAATAGGTGCCTTGTGTTCAGGCTTATGACTCTAATT (double strand) [UE m9]
FLAG-PAX1 (mouse)
  binding result: binds

## TTTCAAACCTGGCAGGGTGAATAGGTGCCTTGTGTTCAGGCTTATGACTCTGGAA (double strand) [UE wt 301-355]
PAX1 (mouse)
  binding result: binds
SOX9 (mouse)
  binding result: binds
SOX9 (mouse); with PAX1 extract added (PAX1 competes)
  binding result: binds more weakly
FLAG-PAX9 (mouse); anti-FLAG supershift
  binding result: binds
FLAG-PAX1 (mouse); anti-FLAG supershift
  binding result: binds

For at least one entry, the source does not settle the construct or the ends of the probe. Where cells or extracts were used, other partners may take part. No signal at the amounts used counts as a negative. For some assays here: At least one verdict rests on a figure or table, not on a statement of the authors. For some assays here: Protein sequences can lack the tags named with them. For some assays here: A weaker result is weaker than the reference pair of the same experiment.
